Screening data, single-dose tests

Source: ChEMBL document CHEMBL3988442, “University of Dundee, Small-Polar-MMV Screening Library” (2021).

The filed quantity is “Percent Effect” (%). The record does not define 0% and 100%; most values in the screen are far below 50% and negative numbers occur (in some assays of this library far below -100). Compounds were drawn at random from those tested, without regard to their results. A dash means the value is not listed here; it may have been measured.

A: 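Whole-parasite assay of Trypanosoma brucei over 72 hours; the read-out is not stated. Concentration: 30 µM. Higher reads as stronger inhibition (inferred: compounds with an IC50 in retests scored well above the rest). Values scatter widely below zero; nearly all retest evidence comes from the higher of the two concentrations used. About 64,000 compounds were tested under these conditions; 1.5% (about 940) showed 50% or more at least once.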
B: 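Assay of Toxoplasma gondii numbers, read through their beta-galactosidase reporter with a colour substrate. Tested at 10 µM. The record gives no direction; the compounds picked for IC50 retests had high values, so higher reads as fewer parasites. Of about 67,000 compounds tested this way, about 260 (0.38%) reached 50% or more in at least one test.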
C: 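Cell assay of Leishmania donovani living inside macrophages; the read-out is not stated. Compounds at 30 µM. The record gives no direction; compounds that gave an IC50 in retests scored well above the rest, so higher reads as stronger inhibition. About 69,000 compounds were tested under these conditions; 1.5% (about 1,000) showed 50% or more at least once.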

| # | structure | A | B | C |
|---|---|---|---|---|
| 1 | `Cc1cc(CN2CCCC2)cc(Oc2ccc(C(F)(F)F)cn2)c1` | -2.834% | 7.669% | -0.4296% |
| 2 | `COC(CNC(=O)c1ccoc1)c1cccc(Cl)c1` (configuration not stated) | -75.1% | -7.031% | 20.93% |
| 3 | `Cc1nc(C)c(C(=O)N2CCCC(n3ccnc3C)C2)s1` (configuration not stated) | -10.36% | 7.852% | 0.772% |
| 4 | `O=C1C(Sc2nnnn2C2CC2)CCN1c1ccccc1Cl` (configuration not stated) | -10.05% | -0.918% | -16.13% |
| 5 | `CCn1ccnc1CN1CCCN(C(=O)c2cc[nH]n2)CC1` | - | -1.424% | 17.39% |
| 6 | `CC(C)c1nn(C)c(N(C)C)c1CNCc1cccc2c1OCO2` | 16.17% | -3.504% | -3.192% |
| 7 | `CS(=O)(=O)N1CC[C@@H](CC(=O)O)[C@@H](CC2=NCCc3cc(F)ccc32)C1` | -6.616% | -1.982% | -8.026% |
| 8 | `CC(C)N(C)CC(=O)N(C)Cc1nc(C(F)(F)F)cs1` | 6.465% | 1.932% | 14.56% |
| 9 | `CC(NC(=O)NCCCN1CCCCCC1)c1nncn1C` (configuration not stated) | 20.4% | 3.123% | 21.61% |
| 10 | `CS(=O)(=O)NCCCN1CCCC1Cc1ccccc1` (configuration not stated) | -10.53% | - | 9.007% |
| 11 | `Cc1cc(C(=O)N2CCN(C(=O)Cc3ccccn3)CC2)c(C)s1` | 28.61% | -7.03% | -0.1584% |
| 12 | `Cc1cc(C(=O)N2CCCC(c3cc(=O)nc4n3CCC4)C2)on1` (configuration not stated) | 0.8624% | 5.589% | 3.963% |
| 13 | `O=C(CN1CCc2cncnc2C1)NCCOc1cccc(Cl)c1` | 26.53% | -0.1806% | -18.8% |
| 14 | `COc1cccc(F)c1-c1c[nH]c(C)n1` | -27.53% | 18.78% | 8.274% |
| 15 | `O=C(c1nn(-c2ccccc2F)cc1O)N1CCC2(CC1)OCCO2` | -26.55% | 5.201% | -17.69% |
| 16 | `COc1ccc(OCCCNCCn2cccn2)cc1` | -5.55% | -20.78% | 15.03% |
| 17 | `CCCn1ncc(-c2ccnc(NC3CCSC3)n2)c1C` (configuration not stated) | 99.54% | 16.2% | 23.65% |
| 18 | `O=C(NCCc1nncn1C1CC1)C1SCCc2sccc21` (configuration not stated) | -6.539% | 5.53% | 11.85% |
| 19 | `COC1COC2(CCN(C(=O)c3ccc4ccccc4c3)CC2)C1` (configuration not stated) | -85.94% | 8.197% | 35.24% |
| 20 | `COCCCNC(=O)CN(C)C(=O)c1cc(C)ccc1O` | 5.797% | 3.554% | 3.575% |
| 21 | `Cc1cnn(CC2CCCN2Cc2nc3ccccc3nc2C)c1` (configuration not stated) | -2.461% | -0.1772% | 18.41% |
| 22 | `Cl.O=C(Nc1cccc(C(=O)OCC2CCCN2)c1)c1ccoc1` (configuration not stated) | -15.83% | -2.849% | 9.481% |
| 23 | `Cc1cc(NS(=O)(=O)c2ccc(C(=O)O)cc2F)ccc1F` | 3.312% | 8.256% | 10.66% |
| 24 | `CCN1CC(C(=O)NCc2ccnc(-n3cccn3)c2)CC1=O` (configuration not stated) | -3.859% | 31.3% | -28.64% |
| 25 | `CCOCCn1nc(C)cc1C(=O)N1CCN(C(C)C)C(CC)C1` (configuration not stated) | 3.383% | 0.2308% | -6.282% |
| 26 | `CC(=O)N1N=C(c2cccs2)OC1C(=O)Nc1ccc(C)cc1` (configuration not stated) | 11.17% | 10.73% | -2.544% |
| 27 | `O=C1CC2(CCN(S(=O)(=O)c3cccs3)C2)CN1c1ccccc1` (configuration not stated) | 3.907% | 2.957% | 25.23% |
| 28 | `CC(C)N(C(=O)Cn1nnnc1CCc1ccccc1)C(C)C` | -55.49% | 4.744% | 4.803% |
| 29 | `CCn1ccnc1CN1CCCN(C(=O)c2cnn(C)c2)CC1` | - | 6.713% | 17.16% |
| 30 | `Cc1cc(CN2CCN(C(=O)NC(C)c3ccncc3)CC2)on1` (configuration not stated) | 6.298% | -32.04% | 28.93% |
| 31 | `CC(OCC(F)(F)F)C(=O)N1CCOCC1` (configuration not stated) | -36.38% | 18.22% | -20.3% |
| 32 | `Cc1ccc(CN2CC[C@H](c3nnc(-c4ccco4)o3)C2)cc1` | -46.71% | -3.121% | -8.147% |
| 33 | `CCOC(=O)N1CCN(C(=O)c2snnc2-c2ccc(OC)cc2)CC1` | -7.493% | 1.797% | -18.76% |
| 34 | `CN(CCCc1cnn(C)c1)c1nccc(-c2cc(C(=O)O)ccn2)n1` | -19.29% | 10.11% | -16.3% |
| 35 | `CC(C)Cc1noc(CN2CCN(C(=O)c3cccs3)CC2)n1` | -19.16% | 18.14% | 19.82% |
| 36 | `O=C(c1ccc2ccccc2c1)C1CCCN(C(=O)Cn2cnnn2)C1` (configuration not stated) | -41.17% | -1.186% | 8.813% |
| 37 | `CCCOC(C)C(=O)NCc1cc2n(n1)CCCN(C1CCCCC1)C2` (configuration not stated) | -2.12% | 15.04% | 20.03% |
| 38 | `Cc1noc(C)c1C(C)C(=O)N1CCCN(Cc2cscn2)CC1` (configuration not stated) | 4.109% | 3.417% | 20.38% |
| 39 | `CC(C)N(Cc1cnn(C)c1)CC1CCCN(S(C)(=O)=O)C1` (configuration not stated) | -14.86% | -35.67% | -9.061% |
| 40 | `O=C(Nc1cnn(CCN2CCOCC2)c1)c1ccccc1Cl` | 8.695% | 5.379% | 13.33% |
| 41 | `CCC[C@]12CN3C[C@](C)(CN(C1)C3c1[nH]c(=O)[nH]c(=O)c1C)C2=O` (some centres not stated) | -45.63% | 22.1% | -0.3386% |
| 42 | `[H][C@@]12CCN(c3cccc(F)c3)C[C@@]1([H])O[C@H](C(=O)N1CCN(C)CC1)C2` | 1.766% | 16.49% | 4.872% |
| 43 | `CCOC1CCN(C(=O)c2ccc(-c3cccc(C)c3)[nH]c2=O)CC1` | -20.74% | 12.33% | 24.36% |
| 44 | `COCCN1CCc2cc(C(=O)O)c(NCC3CC3)nc2CC1.O=C(O)C(F)(F)F.O=C(O)C(F)(F)F` | -92.37% | 23.84% | -17.48% |
| 45 | `O=C(CCc1cc2n(n1)CCCN(C(=O)c1cccnc1)C2)NC1CC1` | 27.16% | -7.56% | -12.66% |
| 46 | `C/C=C(\C)CN1C[C@@H](NC(=O)c2ccc(F)c(F)c2)C[C@H]1C(=O)NCC` | -24.4% | 0.7991% | 7.856% |
| 47 | `CC(C)NC(=O)CCNC(=O)Nc1ccc(-n2cncn2)c(F)c1` | - | -3.621% | 17.78% |
| 48 | `[H][C@@]12OCCN(C(=O)c3ccc(OC)c(F)c3)[C@@]1([H])CC[C@H]2OCC` | -50.22% | 1.78% | 12.59% |
| 49 | `CN(C)C(C(=O)NCCSc1ncn[nH]1)c1cccc(F)c1` (configuration not stated) | -28.65% | -8.597% | -3.178% |
| 50 | `Oc1cccc2ccc(CN3CCC4(CCNCC4)C3)nc12` | 31.67% | -0.3482% | 61.55% |
| 51 | `O=C(O)C(F)(F)F.O=C(O)C(F)(F)F.[H][C@@]12CCN(CCN(CC)CC)C[C@]1(C(=O)N1CCOCC1)CCO2` | -15.93% | -2.205% | -45.36% |
| 52 | `Cc1nc(C2CCCN(C(=O)c3cc(-c4ccccc4)[nH]n3)C2)no1` (configuration not stated) | 4.374% | 5.747% | 9.064% |
| 53 | `O=C(c1cccnc1-n1cccn1)N1CCN(CC2CC2)CC1` | -7.564% | -4.962% | 26.23% |
| 54 | `CC(C)(CO)NC(=O)C1CCC(=O)N(Cc2ccc(Cl)cc2)C1` (configuration not stated) | 3.464% | -10.18% | -15.59% |
| 55 | `CSc1nnc(CC2CCN(C(=O)CCc3cccnc3)CC2)n1C` | - | -3.743% | -0.7176% |
| 56 | `CCN1CCN(C[C@@H]2CN(Cc3cnc(C(C)C)nc3)C[C@@H]2CO)CC1` | -14.01% | 3.753% | -7.19% |
| 57 | `Cc1c[nH]nc1C1CCN(c2cnccn2)C1` (configuration not stated) | -13.75% | 0.5344% | 18.02% |
| 58 | `CCOc1cc(CN2CCCC2)ccc1Oc1cccc(C#N)n1` | -28.46% | -75.12% | 36% |
| 59 | `O=C1CCCCN1CCCC(=O)N1CCC2(CC1)[C@H](O)C[C@@H]2O` | 35.61% | -7.832% | 19.81% |
| 60 | `CCn1cc(NC(=O)NC2CCCc3c2cnn3CCO)cn1` (configuration not stated) | -19.09% | -25.66% | 9.82% |
| 61 | `COc1ccc(CNC[C@H]2COCc3nc4cc(F)ccc4n32)cn1` | -8.982% | 11.09% | 16.09% |
| 62 | `Cc1nc(C(C)NCc2cc(O)c3cccc(F)c3n2)cs1` (configuration not stated) | -21.69% | 4.345% | 17.57% |
| 63 | `NC(=O)C1CCCN(c2ccc(CNC(=O)c3csnn3)cc2)C1` (configuration not stated) | -11.05% | 7.756% | 20.25% |
| 64 | `Cc1nc(C(=O)N2CCCC2c2c(C)nn(C)c2Cl)ccc1C#N` (configuration not stated) | 7.429% | 3.313% | 9.315% |
| 65 | `O=C(NC1CCCC1)N1CCC2(CC1)CC(Oc1cccnc1)CO2` (configuration not stated) | -35.64% | -2.013% | -8.634% |
| 66 | `CCc1c(NCc2ccncc2)cnn1CC(C)C` | -10.05% | 3.287% | 22.68% |
| 67 | `CC(C)c1nc(CNCC2CCCN2c2cccnn2)cs1` (configuration not stated) | 100.4% | 11.81% | 40.72% |
| 68 | `CCS(=O)(=O)N1Cc2ccccc2CC1C(=O)OCc1c(C)noc1C` (configuration not stated) | -54.09% | 31.41% | -1.124% |
| 69 | `Cn1ncc2c1CCCC2NCc1ccc(Cl)s1` (configuration not stated) | -3.792% | -1.122% | -6.775% |
| 70 | `CCN(CC)C(=O)[C@@H]1C[C@H](NC(=O)c2cccn2C(C)C)CN1C` | -30.3% | -4.204% | 6.113% |
| 71 | `[H][C@@]12CCN(C(=O)C3CC3)C[C@]1([H])OCCN(Cc1ccc(OC)cc1)C2=O` | -6.205% | -9.684% | 17.31% |
| 72 | `CN(C)CCN1C(=O)CCCC12CCCN(Cc1ccc[nH]1)C2` (configuration not stated) | 3.65% | -11.06% | 3.956% |

5 of the entries, repeated:

| structure | A | B | C |
|---|---|---|---|
| `CN(C)CCN1C(=O)CCCC12CCCN(Cc1ccc[nH]1)C2` (configuration not stated) | 3.65% | -11.06% | 3.956% |
| `O=C(Nc1cnn(CCN2CCOCC2)c1)c1ccccc1Cl` | 8.695% | 5.379% | 13.33% |
| `[H][C@@]12CCN(c3cccc(F)c3)C[C@@]1([H])O[C@H](C(=O)N1CCN(C)CC1)C2` | 1.766% | 16.49% | 4.872% |
| `NC(=O)C1CCCN(c2ccc(CNC(=O)c3csnn3)cc2)C1` (configuration not stated) | -11.05% | 7.756% | 20.25% |
| `Cc1noc(C)c1C(C)C(=O)N1CCCN(Cc2cscn2)CC1` (configuration not stated) | 4.109% | 3.417% | 20.38% |